Measured values as given in PMC4150794.
These are yes or no findings as the source states them, for the method shown. In cells and extracts the contact can be indirect. Some results given as binding are weak or reduced against the parent protein; the word gives no strength. Each block holds one substance with its values, some of them ahead of it.

Chains of the proteins cited; added tags and fusions are not shown. Lines headed by an entry give the natural chain unless they say otherwise; changes in a name come on top.
UniProt Q6ZRY4: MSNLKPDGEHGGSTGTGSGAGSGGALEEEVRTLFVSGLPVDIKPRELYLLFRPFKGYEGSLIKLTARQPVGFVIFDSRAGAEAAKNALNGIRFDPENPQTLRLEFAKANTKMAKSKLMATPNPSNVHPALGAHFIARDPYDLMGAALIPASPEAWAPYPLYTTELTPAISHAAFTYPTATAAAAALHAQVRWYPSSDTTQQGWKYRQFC
UniProt Q9W6I1: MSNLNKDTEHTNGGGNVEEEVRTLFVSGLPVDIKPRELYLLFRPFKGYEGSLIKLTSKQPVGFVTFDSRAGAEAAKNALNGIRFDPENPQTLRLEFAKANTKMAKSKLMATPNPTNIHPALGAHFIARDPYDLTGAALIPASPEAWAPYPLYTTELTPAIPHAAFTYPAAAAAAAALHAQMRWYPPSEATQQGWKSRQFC
UniProt P17081: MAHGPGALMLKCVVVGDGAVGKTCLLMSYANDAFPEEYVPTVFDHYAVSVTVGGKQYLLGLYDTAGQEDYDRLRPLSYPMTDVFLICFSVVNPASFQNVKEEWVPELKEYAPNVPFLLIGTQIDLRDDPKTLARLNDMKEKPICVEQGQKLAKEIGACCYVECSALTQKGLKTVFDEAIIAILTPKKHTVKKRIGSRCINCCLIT

Experiments:
[1] = molecular target: Myc-RBPMS2 (full-length human RBPMS2, N-terminal Myc tag) in DF-1 cells (human) (UniProt Q6ZRY4); assay: co-IP; lysates of transfected DF-1 cells; rabbit anti-Myc on protein A-Sepharose, 4 °C, 1 h, 50 mM Tris pH 8, 150 mM NaCl, 0.4% NP40; blot with anti-HA; also after RNase A (50 μg/ml, 30 min)
[2] = molecular target: Myc-RBPMS2 (full-length human RBPMS2, N-terminal Myc tag) in DF-1 cells (human) (UniProt Q6ZRY4); assay: proximity ligation; DuoLink in situ PLA in transfected DF-1 cells with mouse anti-HA and rabbit anti-Myc
[3] = molecular target: Myc-RBPMS2 (chick full-length RBPMS2, Myc tag, RCAS) (chick) (UniProt Q9W6I1); assay: cross-linking; 4 μg total protein extract of infected DF-1 cells, 0.1% glutaraldehyde in PBS, 4 °C, 10 or 30 s; SDS-PAGE and blot with anti-Myc or anti-GFP
[4] = molecular target: Myc-RBPMS2-L40E (chick full-length RBPMS2 L40E, Myc tag, RCAS) (chick) (UniProt Q9W6I1); assay: as above

Substance: HA-TC10 (human small GTPase TC10, HA tag) in DF-1 cells (from UniProt P17081 1-205)
- binding [1]: no binding
- binding [2]: no binding

- binding [3]: binds
Substance: Myc-RBPMS2 (chick full-length RBPMS2, Myc tag, RCAS) (from UniProt Q9W6I1 1-200)

- binding [4]: no binding
Substance: Myc-RBPMS2-L40E (chick full-length RBPMS2 L40E, Myc tag, RCAS) (from UniProt Q9W6I1 1-200)
